Data reported in patent US20160060631.
For at least one entry, the source does not settle the construct or the ends of the probe. Where cells or extracts were used, other partners may take part.

Amino acid sequences for entries named in this document (tags omitted).
UniProt P12004, whole entry: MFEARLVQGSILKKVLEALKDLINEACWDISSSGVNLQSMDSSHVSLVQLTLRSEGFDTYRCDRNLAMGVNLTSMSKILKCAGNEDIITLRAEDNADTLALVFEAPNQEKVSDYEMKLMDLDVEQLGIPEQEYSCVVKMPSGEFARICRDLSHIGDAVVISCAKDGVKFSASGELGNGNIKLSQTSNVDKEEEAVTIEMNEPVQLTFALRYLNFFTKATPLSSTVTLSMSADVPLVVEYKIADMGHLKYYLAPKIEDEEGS

Target: His-PCNA in E. coli total protein extract (Homo sapiens) (UniProt P12004)
Assay: pull-down
Conditions: purification from extract at 2.0 mg/ml; AS buffer 5 mM MgCl2, eluted with 50 mM Tris pH 7.5; protein in an extract; protein details: His-tag (aptamer target), overexpressed in E. coli; label: 5'-biotin; single-stranded DNA

## GTTTGCCGGTGGGCAGGTTTAGGGTCTGCTCGGGATTGCGGAGGAACATGCGTCGCAAAC [aptamer B1]
  binding result: binds
